{"sequences": {"note": "Protein sequences, listed by entry. Tags and fused reporters are not part of them.", "UniProt Q8N8Y2": "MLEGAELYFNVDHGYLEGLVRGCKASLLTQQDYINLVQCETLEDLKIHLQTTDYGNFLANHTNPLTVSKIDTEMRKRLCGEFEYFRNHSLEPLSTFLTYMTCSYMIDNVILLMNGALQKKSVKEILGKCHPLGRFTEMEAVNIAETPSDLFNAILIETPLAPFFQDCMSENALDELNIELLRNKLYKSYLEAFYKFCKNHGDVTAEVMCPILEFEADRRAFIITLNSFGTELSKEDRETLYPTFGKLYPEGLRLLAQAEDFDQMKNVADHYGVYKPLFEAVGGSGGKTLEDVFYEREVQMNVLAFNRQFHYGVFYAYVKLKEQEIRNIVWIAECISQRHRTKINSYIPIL", "UniProt P51149": "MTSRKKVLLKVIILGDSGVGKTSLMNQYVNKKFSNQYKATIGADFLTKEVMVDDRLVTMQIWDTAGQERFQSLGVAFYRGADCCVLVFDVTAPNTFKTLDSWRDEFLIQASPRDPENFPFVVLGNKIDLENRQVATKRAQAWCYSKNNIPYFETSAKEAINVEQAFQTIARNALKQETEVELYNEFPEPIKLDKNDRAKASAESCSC"}, "source": "paper PMC11849937", "target": "Flag-tagged ATP6V0D2 (ATPase H+ transporting V0 subunit d2) (UniProt Q8N8Y2)", "assay": "affinity purification with mass spectrometry; proteins pulled down by FLAG-tagged ATP6V0D2 from 786O cells, mass spectrometry (Q Exactive HF)", "note": "Results are given in words; binding and its absence hold for the method and conditions named. Binding seen in cells or lysates may run through a third protein. A yes stands for co-enrichment or nearness to the bait. Other partners may have been found."}
{"substance": "RAB7 (endogenous) (from UniProt P51149 1-207)", "values": [{"measurement": "binding", "value": "binds"}]}
